Test results as given in the supplement of paper PMC3334620.
In all, about 33,000 sequences were measured (“E-score (-0.5 to 0.5)”: median about -0.016, highest 2% from about 0.3 on). This is one part of the list.

target: T1, Yer184c (UniProt P39961); experiment: PBM E-score (8-mer binding enrichment) (E-score (-0.5 to 0.5)); higher = stronger / more preferred TF binding; conditions: protein concentration: 100 nM; construct: GST-full length
T1 sequence: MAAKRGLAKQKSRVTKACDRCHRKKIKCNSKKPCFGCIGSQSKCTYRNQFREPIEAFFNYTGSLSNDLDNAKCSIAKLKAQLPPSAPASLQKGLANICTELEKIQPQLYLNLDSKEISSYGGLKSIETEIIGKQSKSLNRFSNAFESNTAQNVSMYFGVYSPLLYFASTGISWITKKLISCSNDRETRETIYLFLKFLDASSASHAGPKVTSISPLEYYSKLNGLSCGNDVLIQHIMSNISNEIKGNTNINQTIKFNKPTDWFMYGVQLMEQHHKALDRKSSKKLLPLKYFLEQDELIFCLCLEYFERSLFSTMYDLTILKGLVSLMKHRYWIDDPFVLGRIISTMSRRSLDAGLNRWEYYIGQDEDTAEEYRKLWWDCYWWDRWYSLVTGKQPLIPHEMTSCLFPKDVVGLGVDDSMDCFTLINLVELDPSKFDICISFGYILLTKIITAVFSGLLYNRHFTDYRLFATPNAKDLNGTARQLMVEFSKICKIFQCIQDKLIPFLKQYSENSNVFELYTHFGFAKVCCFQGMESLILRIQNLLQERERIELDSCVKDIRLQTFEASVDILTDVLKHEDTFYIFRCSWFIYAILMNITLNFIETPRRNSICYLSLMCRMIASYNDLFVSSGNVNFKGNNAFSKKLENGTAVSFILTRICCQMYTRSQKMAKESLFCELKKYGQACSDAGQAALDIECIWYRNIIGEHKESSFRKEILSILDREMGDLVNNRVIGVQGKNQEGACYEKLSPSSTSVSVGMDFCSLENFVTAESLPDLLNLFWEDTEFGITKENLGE
Summary of the method: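 GST-tagged yeast TFs (full-length or DNA-binding domain) were made by PURExpress in vitro transcription/translation and applied at about 100-200 nM to universal all-10-mer Agilent arrays. The arrays were made double-stranded by primer extension, on fresh or once-stripped slides. Bound protein was detected with fluorescent anti-GST, and scans were normalised with masliner. Each ungapped eight-base word, pooled with its reverse complement, received an E-score (modified Wilcoxon-Mann-Whitney statistic) from the Universal PBM Analysis Suite.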

Sequence | PBM E-score
GTACGATA | -0.122
GCCACTCC | -0.0873
AACGTTTA | -0.0445
ACGCCGGA | 0.227
ACGGAATA | 0.321
CCCGTCGC | -0.117
AAACACCC | 0.0378
CAAAATTA | 0.212
CCCCAAGG | -0.381
CTGCTTCA | -0.155
CGTCATAA | 0.0537
AAACATGT | 0.17
CCAACTGA | -0.105
AAATCCAC | -0.0363
GTTGCACA | 0.0652
ATTTTTTC | 0.256
ATATACTG | 0.174
AGGCAAGC | -0.227
CCAAGTAG | -0.15
CCTGGTCG | -0.0872
CGTCCCTA | -0.11
CTGGCTGC | -0.198
CATGATAC | 0.176
CGAGATTC | 0.0732
CGAATGAA | 0.0657

Sequence | PBM E-score
CTTTTGCC | 0.028
ATTTCCTG | 0.186
GAGACCCC | -0.26
GGACAGCA | 0.115
AGGGGGGG | -0.474
AGACTTTG | -0.0649
ACTGCTAG | -0.186
AATTTTGA | 0.209
GATCAGTA | 0.155
CCAAGGAA | -0.0117
CCCGTCGA | -0.0148
GATAAAAA | 0.29
AAAGTGTC | -0.0981
ACTATGGA | -0.144
AGAGCTCA | -0.142
ACCTCATA | -0.0137
ATGTGTAG | -0.0726
CTCGTGTA | 0.0138
GCGATCGC | -0.0844
GGAGGTAA | -0.0289
CAGGTGAC | -0.205
CGGTCCTC | -0.0287
CGAAACTA | 0.0737
GGTCATGA | 0.00444
AGTGCAAT | -0.102

Sequence | PBM E-score
CCTCGCGC | -0.122
CCTAGACA | -0.14
CTCATAAA | 0.192
ATACCTGA | 0.0252
CGATTTGC | 0.123
ATCTAGAG | -0.151
ATCTATGA | 0.0171
AGGCCCCG | -0.217
GGGACAGA | -0.19
GATTACAA | 0.169
ATTGGTCG | 0.04
CGCGACGC | -0.105
TCAAGCGA | -0.215
CCGGCGCA | 0.277
CAAGACAC | 0.0985
CGTACTCA | -0.0942
GGCTTGAC | -0.00879
ACAATGAA | 0.159
CGCTGTGA | -0.0939
AGCCGGTA | 0.306
CCCCCCAG | -0.449
ATTAATTG | 0.197
ACGTTCCC | -0.194
CACACCTC | -0.168
CCAATAGC | -0.192

Taken from above:
Value for AGGCCCCG under PBM E-score: -0.217
Value for ACAATGAA under PBM E-score: 0.159
Value for TCAAGCGA under PBM E-score: -0.215
Value for CTCATAAA under PBM E-score: 0.192
Value for CACACCTC under PBM E-score: -0.168

Next part:

Sequence | PBM E-score
CTGGACAG | -0.0251
ATGGGAAG | -0.202
CGTCCAAA | 0.0987
AACTTGTG | 0.095
AGAATCTA | 0.0901
AAACGATA | 0.136
ATTTTAGG | 0.105
ATAGCGTA | -0.0169
CTTGCAAG | 0.246
TACCCTGA | -0.212
ATATGTTA | -0.0145
CTGACGAC | -0.135
ACAGCATC | -0.133
AATGAGGA | -0.235
ACACGCCG | 0.181
AAGTACTG | 0.039
GTGCCCGA | -0.0178
AAACACAA | 0.188
AGACGCGA | 0.0138
CTTGCGTA | -0.095
ACATCCCG | 0.213
AACGGGTA | 0.149
CGGAGGAC | 0.0152
AAAAGTAG | 0.0569
CACCGACA | 0.0307

Sequence | PBM E-score
AGAGTGAG | -0.128
ACTTGTCA | 0.0708
AGCAAGAC | -0.0598
AGCACAAG | -0.0401
CGCGCCCG | -0.00599
ACGCTCAA | -0.0415
CGCAAATC | -0.0243
AAGCCTGT | -0.0651
CGCCGCAC | -0.0179
CGACTGTC | -0.209
CTGCCACA | -0.085
GTTACCTA | -0.0188
CAGGCTAA | -0.216
CGAAAACA | 0.134
AGATCCGA | 0.237
ATTTCCGC | 0.307
CGAGAGCA | 0.0746
AATTTCCC | 0.0065
AGACCGGA | 0.198
ATCCCCTA | -0.312
AACCGGTC | 0.229
CTTGAAAA | 0.0878
CGTTGAAA | 0.121
ACGAGATG | -0.0451
GCTCTCTA | -0.149

Sequence | PBM E-score
GCGTAAAA | 0.108
ATGCGATG | -0.217
TCACCAAA | 0.0454
CTTTTAGC | -0.0509
CATTAGCC | -0.197
AGCCGACC | -0.0181
CCACTGAA | 0.107
CTCTAAAC | -0.0559
GCGAGCAA | -0.08
GGATGATA | -0.0511
AACTCTAA | 0.178
CTGGCCAG | -0.355
CGGCAGAG | 0.0593
AAGTCATG | 0.0848
CACTGAGA | -0.221
AAATGAGA | -0.018
ACACATTC | 0.0278
AGAGGGAA | -0.288
CCGCAACC | 0.129
AATCGTTG | 0.0539
ATCCCGAA | 0.287
TAAATTGA | 0.119
AATGTTCT | 0.0086
AGAGCATG | -0.0963
CGGTACTA | -0.0015

Sequence | PBM E-score
TGCATACA | 0.0647
CTACTAAG | 0.0176
GTAGTCTA | -0.0114
AAATAGGT | -0.086
GCGGACGA | 0.243
ACCTGAAG | -0.0794
AGCGCGTA | 0.0467
AGTAAACT | 0.119
GTAATTAA | 0.143
CTAACGTA | 0.0661
GGTATCTA | 0.18
AGAGTGAC | -0.215
ACGCTCTC | -0.162
TCATATGA | 0.301
GATTATGC | 0.0503
ACGGCAAC | 0.126
GATATAAA | 0.13
AAGAACCT | -0.0869
CCCGAGCG | 0.252
CGTTGAGA | 0.0569
AGGCTTTC | -0.0704
ACAACTTG | -0.0904
